Patent US20240408100A1, “TREATMENT METHODS FOR SUBJECTS HAVING CANCER WITH A DYSREGULATED MAPK AND/OR PI3K PATHWAY” (TAIHO PHARMACEUTICAL CO., LTD., priority 2021, published 2024)
For part of these data: At least one compound was matched to its structure with a doubt left. Some entries share one result that the patent states for a list of compounds.

Legend:
[1] = test system: SW1573 human lung tumor xenografts; details: all treated groups, over the experiment
[2] = test system: SW1573; details: reported; cited from earlier work

| Compound | loss in body weight from Day 0 [1] | sensitivity of the SW1573 cell line [2] |
| --- | --- | --- |
| C=CC(=O)N1CCN(c2nc(=O)n(-c3c(C)ccnc3C(C)C)c3nc(-c4c(O)cccc4F)c(F)cc23)[C@@H](C)C1 [AMG510, sotorasib, reference compound] | ≤ 20% | low sensitivity |
| CC(C)(C)NCCNc1ccc(-c2nnc(C(F)(F)F)o2)nc1C1CCN(c2ncnc3c2C(C)(C)C(=O)N3)CC1 [Compound (1), 4-(4-(3-((2-(tert-butylamino)ethyl)amino)-6-(5-(trifluoromethyl)-1,3,4-oxadiazol-2-yl)pyridin-2-yl)piperidin-1-yl)-5,5-dimethyl-5H-pyrolo[2,3-d]pyrimidin-6(7H)-one] | ≤ 20% | – |
